Where “and” joins values, the source holds several entries; their conditions need not be identical. Identical values can stand only once. The inconclusive results got no clear call from the source; some entries with a clear call stand among them for comparison. Potencies beside an inconclusive call are fits to weak or partial responses and may not hold up. Calls of active or inactive are those of the source. How the source made its calls: active means hit-call score of the fitted dose curve at least 0.9, where 1 is the maximum; inconclusive means response in the unintended direction; inactive means score below 0.9.
Tests used:
[1] = target: Nuclear receptor subfamily 1 group I member 2 (Homo sapiens) (UniProt O75469); test: ATG_PXR_TRANS: Attagene TRANS-FACTORIAL HepG2 Assay for human Pregnane X Receptor (PXR) (AID 2283008)
How it was run: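 Trans-factorial format: exogenous NR-Gal4 fusion activity, not endogenous factor, in transfected human HepG2 liver cells. After 24 h dosing, RNA isolated, reverse-transcribed, amplified and resolved by capillary electrophoresis; induction scored versus DMSO.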

The chains behind the UniProt entries cited, without tags or fusion partners. Where a name states a change or a piece, a line headed by the entry shows the natural chain unless it says otherwise.
UniProt O75469: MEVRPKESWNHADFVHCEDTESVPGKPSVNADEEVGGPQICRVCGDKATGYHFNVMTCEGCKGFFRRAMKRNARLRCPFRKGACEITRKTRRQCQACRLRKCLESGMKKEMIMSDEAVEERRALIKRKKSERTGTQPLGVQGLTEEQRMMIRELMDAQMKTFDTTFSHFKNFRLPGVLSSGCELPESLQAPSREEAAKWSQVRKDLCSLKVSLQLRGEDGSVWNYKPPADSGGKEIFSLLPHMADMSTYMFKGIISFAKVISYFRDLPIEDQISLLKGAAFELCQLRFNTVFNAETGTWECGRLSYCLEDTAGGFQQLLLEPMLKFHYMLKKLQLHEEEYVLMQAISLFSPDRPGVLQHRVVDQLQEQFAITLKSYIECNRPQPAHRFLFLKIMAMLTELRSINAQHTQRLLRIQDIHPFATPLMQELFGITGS
UniProt P13631, whole entry, looked up: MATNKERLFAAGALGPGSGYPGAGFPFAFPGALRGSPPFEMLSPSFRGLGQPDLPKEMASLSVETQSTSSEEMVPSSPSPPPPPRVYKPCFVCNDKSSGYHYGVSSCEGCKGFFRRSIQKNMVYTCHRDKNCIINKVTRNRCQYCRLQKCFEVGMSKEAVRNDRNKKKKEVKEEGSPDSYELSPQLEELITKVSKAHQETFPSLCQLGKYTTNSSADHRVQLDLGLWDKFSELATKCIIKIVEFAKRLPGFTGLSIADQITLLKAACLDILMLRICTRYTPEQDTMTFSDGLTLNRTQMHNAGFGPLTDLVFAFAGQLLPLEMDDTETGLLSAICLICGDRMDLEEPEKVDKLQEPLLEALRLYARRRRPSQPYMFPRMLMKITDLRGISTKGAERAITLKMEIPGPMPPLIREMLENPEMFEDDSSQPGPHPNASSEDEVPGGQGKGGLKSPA
UniProt Q92753: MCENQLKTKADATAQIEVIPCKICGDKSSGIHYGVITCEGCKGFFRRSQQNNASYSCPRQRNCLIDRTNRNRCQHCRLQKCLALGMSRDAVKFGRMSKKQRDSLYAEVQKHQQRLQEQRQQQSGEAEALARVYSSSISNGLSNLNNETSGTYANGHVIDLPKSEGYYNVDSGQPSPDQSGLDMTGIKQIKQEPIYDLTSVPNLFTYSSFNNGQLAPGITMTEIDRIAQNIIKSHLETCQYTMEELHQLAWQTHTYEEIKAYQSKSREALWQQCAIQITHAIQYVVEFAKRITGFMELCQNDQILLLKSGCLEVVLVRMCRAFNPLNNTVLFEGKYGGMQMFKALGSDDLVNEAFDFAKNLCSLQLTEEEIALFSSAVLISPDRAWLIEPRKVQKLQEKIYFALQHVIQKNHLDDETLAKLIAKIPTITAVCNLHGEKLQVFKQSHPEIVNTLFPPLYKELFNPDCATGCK
UniProt P51449: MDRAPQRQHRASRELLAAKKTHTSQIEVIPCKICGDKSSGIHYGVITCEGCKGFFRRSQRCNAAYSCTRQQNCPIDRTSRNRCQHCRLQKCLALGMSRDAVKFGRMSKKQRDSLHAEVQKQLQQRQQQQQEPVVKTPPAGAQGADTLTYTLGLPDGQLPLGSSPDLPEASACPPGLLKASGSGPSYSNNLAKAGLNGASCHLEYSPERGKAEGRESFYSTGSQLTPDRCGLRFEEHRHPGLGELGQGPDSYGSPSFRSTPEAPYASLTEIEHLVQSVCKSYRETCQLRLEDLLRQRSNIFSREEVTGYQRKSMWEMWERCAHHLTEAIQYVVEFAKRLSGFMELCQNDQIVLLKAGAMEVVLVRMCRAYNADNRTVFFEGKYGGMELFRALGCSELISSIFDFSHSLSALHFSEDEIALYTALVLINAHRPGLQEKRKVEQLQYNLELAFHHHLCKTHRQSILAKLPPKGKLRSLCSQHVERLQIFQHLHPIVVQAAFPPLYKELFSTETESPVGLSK
UniProt P19793: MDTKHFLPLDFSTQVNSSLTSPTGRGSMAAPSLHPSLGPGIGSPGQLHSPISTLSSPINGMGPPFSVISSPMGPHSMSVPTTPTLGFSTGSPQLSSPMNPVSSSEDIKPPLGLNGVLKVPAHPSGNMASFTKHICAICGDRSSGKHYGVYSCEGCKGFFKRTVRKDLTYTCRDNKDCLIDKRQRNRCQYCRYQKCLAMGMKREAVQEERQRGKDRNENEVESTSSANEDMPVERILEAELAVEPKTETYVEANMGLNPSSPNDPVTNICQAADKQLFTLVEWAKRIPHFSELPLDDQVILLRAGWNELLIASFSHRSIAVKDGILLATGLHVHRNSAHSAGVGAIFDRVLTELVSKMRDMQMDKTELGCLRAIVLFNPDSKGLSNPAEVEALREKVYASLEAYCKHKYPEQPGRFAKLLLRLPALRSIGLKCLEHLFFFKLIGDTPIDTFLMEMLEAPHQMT
UniProt P28702: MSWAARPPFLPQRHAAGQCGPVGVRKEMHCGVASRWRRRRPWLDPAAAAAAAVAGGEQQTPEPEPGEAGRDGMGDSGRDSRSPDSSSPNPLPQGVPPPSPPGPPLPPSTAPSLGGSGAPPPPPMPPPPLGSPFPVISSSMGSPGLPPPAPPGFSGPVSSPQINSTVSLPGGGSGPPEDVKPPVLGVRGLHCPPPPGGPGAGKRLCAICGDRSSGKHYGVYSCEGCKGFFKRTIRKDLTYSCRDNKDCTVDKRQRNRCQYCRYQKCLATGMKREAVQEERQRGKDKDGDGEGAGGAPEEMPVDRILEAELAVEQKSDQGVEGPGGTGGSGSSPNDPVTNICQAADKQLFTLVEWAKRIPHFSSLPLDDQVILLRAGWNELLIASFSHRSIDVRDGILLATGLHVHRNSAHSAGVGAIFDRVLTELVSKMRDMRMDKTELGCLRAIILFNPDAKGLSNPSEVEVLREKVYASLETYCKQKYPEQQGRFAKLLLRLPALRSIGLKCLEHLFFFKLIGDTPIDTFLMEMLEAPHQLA
UniProt P10827: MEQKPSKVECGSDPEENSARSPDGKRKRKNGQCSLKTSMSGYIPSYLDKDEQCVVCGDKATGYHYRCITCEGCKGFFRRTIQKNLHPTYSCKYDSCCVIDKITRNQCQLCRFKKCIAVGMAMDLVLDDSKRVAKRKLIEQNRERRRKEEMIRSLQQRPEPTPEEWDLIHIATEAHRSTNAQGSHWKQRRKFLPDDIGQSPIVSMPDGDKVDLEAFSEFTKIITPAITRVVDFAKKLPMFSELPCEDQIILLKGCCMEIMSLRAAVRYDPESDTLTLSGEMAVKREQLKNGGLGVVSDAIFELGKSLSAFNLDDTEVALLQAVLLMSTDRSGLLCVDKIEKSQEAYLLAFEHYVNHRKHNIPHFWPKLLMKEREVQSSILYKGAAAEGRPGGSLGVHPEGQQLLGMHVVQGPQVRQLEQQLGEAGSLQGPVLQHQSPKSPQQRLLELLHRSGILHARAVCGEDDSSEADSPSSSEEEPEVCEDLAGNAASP
UniProt P11473: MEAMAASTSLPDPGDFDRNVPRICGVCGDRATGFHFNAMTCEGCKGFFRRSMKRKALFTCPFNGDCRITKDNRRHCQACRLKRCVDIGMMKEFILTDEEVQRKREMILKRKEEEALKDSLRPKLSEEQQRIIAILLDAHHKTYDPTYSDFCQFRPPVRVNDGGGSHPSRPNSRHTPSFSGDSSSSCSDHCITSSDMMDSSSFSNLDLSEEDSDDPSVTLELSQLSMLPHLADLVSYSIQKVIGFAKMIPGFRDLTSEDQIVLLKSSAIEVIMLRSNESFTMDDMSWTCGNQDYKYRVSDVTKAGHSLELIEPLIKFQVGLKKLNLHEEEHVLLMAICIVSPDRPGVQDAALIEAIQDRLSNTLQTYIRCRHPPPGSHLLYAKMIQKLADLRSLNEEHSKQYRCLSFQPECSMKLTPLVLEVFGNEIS

[2] = target: human Retinoic Acid Receptor gamma (RARg), RARG (gene 5916) (UniProt P13631); test: ATG_RARg_TRANS: Attagene TRANS-FACTORIAL HepG2 Assay for human Retinoic Acid Receptor gamma (RARg) (AID 2283009);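 on AC50: AC50 is for reporter induction above DMSO meaning RARg activation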
How it was run: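 Readout: reporter transcript levels via RT-PCR, 6-FAM primer-extension labelling, HpaI digestion and capillary electrophoresis. Cells: HepG2 carrying transfected RARg-GAL4 chimera plus UAS reporter set. Dosing 24 h; DMSO negative control.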

[3] = target: human RAR-related Orphan Receptor beta (RORb), RORB (gene 6096) (UniProt Q92753); test: ATG_RORb_TRANS: Attagene TRANS-FACTORIAL HepG2 Assay for human RAR-related Orphan Receptor beta (RORb) (AID 2283010);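 on AC50: potency for increased reporter mRNA meaning activation of RORb-Gal4 chimera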
How it was run: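 HepG2, transient MRTU transfection (GAL4-UAS reporters, exogenous NR-Gal4 chimeras); 24 h compound exposure; total RNA → RT-PCR → 6-FAM primer extension → HpaI digest → CE fluorescence. Positive direction vs DMSO baseline.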

[4] = target: human RAR-related Orphan Receptor gamma (RORg), RORC (gene 6097) (UniProt P51449); test: ATG_RORg_TRANS: Attagene TRANS-FACTORIAL HepG2 Assay for human RAR-related Orphan Receptor gamma (RORg) (AID 2283011);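 on AC50: potency for induction of reporter transcripts above DMSO so activators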
How it was run: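 Reporter transcripts from a transfected RORg-GAL4 chimera in HepG2 cells were quantified 24 h after dosing by RT-PCR, 6-FAM labelling, HpaI digestion and capillary electrophoresis; increases over DMSO baseline were fitted.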

[5] = target: Retinoic acid receptor RXR-alpha (Homo sapiens) (UniProt P19793); test: ATG_RXRa_TRANS: Attagene TRANS-FACTORIAL HepG2 Assay for human Retinoid X Receptor alpha (RXRa) (AID 2283012)
How it was run: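 Read-out: fluorescent reporter-transcript fragments quantified by capillary electrophoresis after RT-PCR. Transiently transfected HepG2 cells carrying GAL4-UAS reporters and NR-GAL4 chimeras were exposed to chemical for 24 h; activity scored as increase over DMSO.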

[6] = target: human Retinoid X Receptor beta (RXRb), RXRB (gene 6257) (UniProt P28702); test: ATG_RXRb_TRANS: Attagene TRANS-FACTORIAL HepG2 Assay for human Retinoid X Receptor beta (RXRb) (AID 2283013)
How it was run: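 Read-out: reporter mRNA induction via RT-PCR plus capillary electrophoresis fluorescence, analysed as signal increase relative to DMSO. Cells were human HepG2, transiently transfected with GAL4-UAS reporter constructs and chimeric receptor-Gal4 fusions, dosed for 24 h.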

[7] = target: human Thyroid Receptor alpha (THRa1), THRA (gene 7067) (UniProt P10827); test: ATG_THRa1_TRANS: Attagene TRANS-FACTORIAL HepG2 Assay for human Thyroid Receptor alpha (THRa1) (AID 2283014)
How it was run: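 Transcripts from GAL4-UAS-driven reporters, measured after 24 h compound exposure by RT-PCR plus capillary electrophoresis of 6-FAM-labeled fragments, were fitted for gain of signal relative to DMSO. Cells: transiently transfected HepG2 expressing NR-Gal4 chimeras.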

[8] = target: human Vitamin D Receptor (VDR), VDR (gene 7421) (UniProt P11473); test: ATG_VDR_TRANS: Attagene TRANS-FACTORIAL HepG2 Assay for human Vitamin D Receptor (VDR) (AID 2283022)
How it was run: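 Transactivation by an exogenous VDR-Gal4 chimera in transiently transfected HepG2 cells was measured as reporter transcript level 24 hours after chemical treatment. RT-PCR products were analysed by capillary electrophoresis and fitted in the positive direction relative to DMSO.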

Measured: AC50

COCC(C)OCC(C)O (configuration not stated)
inactive: [2]
inconclusive: [1] 100 µM | [3] 2.08 µM | [4] 0.634 µM | [5] 100 µM | [6] 100 µM | [7] 23.9 µM | [8] 100 µM

CC1(C)C(=O)N(Br)C(=O)N1Cl
inconclusive: [1] 33.5 µM | [2] 100 µM | [3] 100 µM | [4] 100 µM | [5] 26.8 µM | [6] 1.81 µM | [8] 100 µM
inactive: [7]

O=C(O)c1cccc(N(Cc2cccnc2)c2ccc(OC(F)F)c(OC(F)F)c2)c1
inactive: [2] | [5]
active: [1] 11.1 µM
inconclusive: [3] 100 µM | [4] 100 µM | [6] 100 µM | [7] 19.8 µM

CCCCCCCCc1ccc(S(=O)(=O)O)cc1
inconclusive: [4] 33.1 µM | [7] 33.1 µM | [8] 33.1 µM
inactive: [1] | [2] | [3] | [5]

Nc1cc(Cl)c(-c2cc(Cl)c(N)cc2Cl)cc1Cl
inactive: [3]
active: [1] 4.7 µM
inconclusive: [2] 0.0523 µM | [4] 11.1 µM | [6] 19.2 µM

O=C(O)C(F)(F)C(F)(F)C(F)(F)C(=O)O
inactive: [2] | [4] | [7]
inconclusive: [1] 150 µM | [3] 272 µM | [6] 150 µM

CCC(=O)C=Cc1ccc(OC)cc1
inconclusive: [2] 100 µM | [3] 100 µM | [4] 100 µM | [6] 100 µM | [8] 100 µM
inactive: [1] | [5]

COC(=O)c1ccc(C=O)cc1
inconclusive: [1] 105 µM | [2] 105 µM | [5] 27.9 µM | [6] 20.8 µM | [8] 105 µM
inactive: [3] | [4]

C=C(C)C(=O)OCC(F)(F)C(F)(F)C(F)(F)C(F)(F)C(F)(F)C(F)(F)C(F)(F)F
inactive: [1] | [2] | [3]
inconclusive: [4] 50 µM | [5] 0.0731 µM | [7] 50 µM

CCCCCCCCCCCC(=O)OC[C@@H](O)[C@H]1OC[C@H](O)[C@H]1O
inconclusive: [1] 50 µM | [3] 0.0412 µM | [4] 50 µM | [7] 50 µM
inactive: [2] | [6]

CC1(C)CC(O)CC(C)(C)N1[O]
inconclusive: [1] 100 µM | [2] 180 µM | [3] 100 µM | [6] 100 µM | [7] 27.8 µM
inactive: [4]

COc1ccc2c(c1)c(CC(=O)O)c(C)n2C(=O)c1ccc(Cl)cc1
inactive: [1] | [3] | [5]
inconclusive: [2] 52.4 µM | [4] 0.119 µM | [6] 100 µM | [7] 100 µM

CNCc1ccc(NC(=O)c2c[nH]c3c2C(=O)CCC3)cc1
inconclusive: [1] 100 µM | [3] 183 µM | [4] 100 µM | [6] 100 µM
inactive: [2]

CC(C)=CCCC(C)O (configuration not stated)
inconclusive: [1] 100 µM | [2] 5.6 µM | [3] 100 µM | [4] 100 µM | [5] 100 µM | [7] 100 µM

Oc1c(Cl)cc(Cl)c(Cl)c1Cc1c(O)c(Cl)cc(Cl)c1Cl
active: [1] 5.79 µM | [6] 12.7 µM | [7] 0.657 µM
inactive: [2] | [3] | [4] | [5] | [8]

C=CCCCCCCCCCC
inconclusive: [1] 100 µM | [2] 181 µM
inactive: [3] | [4] | [6]

FC(F)(F)C1(F)C(F)(F)C(F)(F)C(F)(F)C1(F)F
inconclusive: [1] 260 µM | [6] 150 µM
inactive: [2] | [3] | [4]

COCCOCCOCCO
inactive: [3] | [4]
inconclusive: [1] 27.7 µM | [2] 100 µM | [6] 100 µM

OCC(O)CC(F)(F)C(F)(F)C(F)(F)C(F)(F)F (configuration not stated)
inactive: [1] | [5] | [8]
inconclusive: [2] 150 µM | [3] 150 µM | [4] 150 µM | [6] 274 µM | [7] 150 µM

c1ccc(CN(Cc2ccccc2)Cc2ccccc2)cc1
inactive: [1] | [2]
inconclusive: [3] 100 µM | [4] 184 µM | [7] 26.6 µM
active: [6] 13.1 µM

COc1cc(C(=O)NC2CCN(C)CC2)ccc1Nc1ncc2c(n1)N(C1CCCC1)CC(F)(F)C(=O)N2C
inconclusive: [2] 0.275 µM
inactive: [1] | [3] | [4] | [6] | [7] | [8]

CC(C)CCCC(C)CCO (configuration not stated)
inactive: [1] | [4] | [8]
inconclusive: [2] 100 µM | [3] 100 µM

C=C(C)C(=O)OCCC(F)(F)C(F)(F)C(F)(F)C(F)(F)C(F)(C(F)(F)F)C(F)(F)F
inactive: [1] | [8]
inconclusive: [2] 88.8 µM | [3] 9.97 µM | [4] 50 µM

COC(C)(C)CCCC(C)CC=O (configuration not stated)
inactive: [1]
inconclusive: [2] 100 µM | [3] 100 µM | [4] 100 µM | [6] 100 µM | [7] 100 µM | [8] 100 µM

Source: PubChem BioAssay (EPA / NIEHS)
